Patent US20090252786A1, “Use of a Biologically Active Blood Serum for the Treatment of a Disorder Characterized in a Reduced Function of a GABA Receptor” (priority 2008, published 2009)
For at least one compound, name, drawing or mass did not settle the structure.

Legend:
[1] = test system: pyramidal cell layer of CA1, hippocampus slices; assay: hippocampus slice, provocation with bicuculline; set-up: species or system rat; details: convulsive drug alone
Description: Hippocampus slices were obtained from 11 adult male Sprague-Dawlay rats (Charles River Wiga, Sulzbach, Germany). Rats were kept under a reversed day-night cycle for 2 weeks prior start of the experiments, to allow recording of in-vitro activity from slices during the active phase of their circadian rhythm (Dimpfel et al., 1994, Dimpfel et al., 1995). Animals were exsanguinated under ether anaesthesia, the brain was removed in total and the hippocampal formation was isolated under microstereoscopic sight. The midsection of the hippocampus was fixed to the table of a vibrating microtome (Rhema Labortechnik, Hofheim, Germany) using a cyanoacrylate adhesive, submerged in chilled bicarbonate-buffered saline (artificial cerebro spinal fluid (ACSF) NaCl: 124 mM; KCl: 5 mM; CaCl2: 2 mM; MgSO4: 2 mM; NaHCO3: 26 mM; and glucose: 10 mM), and cut into slices of 400 μm thickness. All slices were preincubated for at least 1 h in carbogen ([…])-saturated ACSF (pH 7.4) in a prechamber before use (see also Dimpfel et al., 1991).
During the experiment the slices were held and treated in a special Superfusion chamber (List Electronics, Darmstadt, Germany) at 35° C. according to Haas et al., 1979 (see also: Schiff and Somjen, 1985). Four slices were used from one rat per day under one of the test conditions (control or various concentrations of the S1 compound). […]

[2] = molecular target: GABAA receptors; details: read-out: half-maximal (IC50) effect on GABAA receptors; cited from earlier work

**Q.** With `CN1CCc2cc3c(cc2[C@H]1[C@@H]1OC(=O)c2c1ccc1c2OCO1)OCO3` [Bicuculline] as the compound, how does the “after discharges after one single electrical stimulus” value [1] read?
**A.** induces so-called after discharges

**Q.** What about the IC50 [2] of the same compound?
**A.** 3000 nM
